The target of this assay is Wdr92-mVenus fusion protein (Drosophila melanogaster) (UniProt Q9VVM7). In words: affinity purification with mass spectrometry; GFP-Trap_A beads on lysates of adult testes of Wdr92-mVenus or Spag1-mVenus males, 3 h at 4°C; lysis buffer 50 mM Tris-HCl pH 7.5, 100 mM NaCl, 10% glycerol, 5 mM EDTA, 0.15% Triton X-100, 0.5% sodium deoxycholate; control Gap43-mVenus testes; on-bead digest, label-free quantification.

By UniProt entry, the sequences of proteins in these tests, tags left out. Where a name states a change or a piece, a line headed by the entry shows the natural chain unless it says otherwise. Chains listed by the source or under a name are the forms on record and can include a tag or linker.
UniProt Q9VVM7: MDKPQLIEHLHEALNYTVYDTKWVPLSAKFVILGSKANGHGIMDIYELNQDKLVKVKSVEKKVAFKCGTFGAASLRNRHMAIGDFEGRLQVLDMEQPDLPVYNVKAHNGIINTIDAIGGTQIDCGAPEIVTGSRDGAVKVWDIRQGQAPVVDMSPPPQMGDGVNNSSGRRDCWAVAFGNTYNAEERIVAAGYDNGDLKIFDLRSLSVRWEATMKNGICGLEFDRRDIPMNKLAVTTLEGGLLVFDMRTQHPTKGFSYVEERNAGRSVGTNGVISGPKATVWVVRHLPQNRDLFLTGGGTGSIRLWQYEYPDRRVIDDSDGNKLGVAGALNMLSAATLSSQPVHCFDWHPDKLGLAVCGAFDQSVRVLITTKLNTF
UniProt A1Z8T9: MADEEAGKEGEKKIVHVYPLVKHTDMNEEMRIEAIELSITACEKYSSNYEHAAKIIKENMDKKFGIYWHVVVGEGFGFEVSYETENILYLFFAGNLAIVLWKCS
UniProt Q9VJY4: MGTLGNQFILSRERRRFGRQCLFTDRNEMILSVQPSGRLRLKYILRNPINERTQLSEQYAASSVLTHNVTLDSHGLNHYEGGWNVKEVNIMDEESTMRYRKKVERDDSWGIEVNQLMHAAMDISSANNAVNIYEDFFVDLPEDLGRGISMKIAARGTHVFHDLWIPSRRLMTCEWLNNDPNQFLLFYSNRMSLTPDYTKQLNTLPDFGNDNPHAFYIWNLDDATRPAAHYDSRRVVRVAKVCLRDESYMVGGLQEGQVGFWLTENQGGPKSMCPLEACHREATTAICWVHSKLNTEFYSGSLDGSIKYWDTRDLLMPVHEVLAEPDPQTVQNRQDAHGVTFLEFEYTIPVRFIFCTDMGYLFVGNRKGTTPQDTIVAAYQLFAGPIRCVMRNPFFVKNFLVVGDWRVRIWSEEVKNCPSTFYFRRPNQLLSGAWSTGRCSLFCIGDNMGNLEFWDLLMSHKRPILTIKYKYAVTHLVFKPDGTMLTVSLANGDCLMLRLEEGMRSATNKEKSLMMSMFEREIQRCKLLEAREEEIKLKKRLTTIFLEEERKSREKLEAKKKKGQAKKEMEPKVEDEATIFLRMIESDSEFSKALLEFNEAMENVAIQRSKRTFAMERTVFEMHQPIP
UniProt A1ZBP5: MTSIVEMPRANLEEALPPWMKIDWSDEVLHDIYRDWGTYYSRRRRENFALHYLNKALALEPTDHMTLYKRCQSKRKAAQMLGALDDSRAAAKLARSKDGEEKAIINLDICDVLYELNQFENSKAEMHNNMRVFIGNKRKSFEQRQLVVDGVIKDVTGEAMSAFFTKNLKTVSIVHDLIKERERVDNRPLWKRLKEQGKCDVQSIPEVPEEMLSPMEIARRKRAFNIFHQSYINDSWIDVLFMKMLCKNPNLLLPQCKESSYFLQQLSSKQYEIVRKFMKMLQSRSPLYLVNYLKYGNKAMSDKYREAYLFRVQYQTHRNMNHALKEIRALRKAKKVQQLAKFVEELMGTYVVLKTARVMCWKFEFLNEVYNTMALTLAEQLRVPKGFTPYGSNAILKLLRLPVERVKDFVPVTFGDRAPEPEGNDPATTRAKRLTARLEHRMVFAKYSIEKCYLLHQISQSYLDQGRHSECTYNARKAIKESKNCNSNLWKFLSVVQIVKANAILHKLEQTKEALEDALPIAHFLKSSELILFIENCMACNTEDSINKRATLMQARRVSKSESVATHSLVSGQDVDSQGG
UniProt Q0KI89: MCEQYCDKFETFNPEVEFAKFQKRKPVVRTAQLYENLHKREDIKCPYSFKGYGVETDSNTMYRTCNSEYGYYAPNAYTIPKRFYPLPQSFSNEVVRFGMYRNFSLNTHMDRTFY
UniProt Q9V3E9: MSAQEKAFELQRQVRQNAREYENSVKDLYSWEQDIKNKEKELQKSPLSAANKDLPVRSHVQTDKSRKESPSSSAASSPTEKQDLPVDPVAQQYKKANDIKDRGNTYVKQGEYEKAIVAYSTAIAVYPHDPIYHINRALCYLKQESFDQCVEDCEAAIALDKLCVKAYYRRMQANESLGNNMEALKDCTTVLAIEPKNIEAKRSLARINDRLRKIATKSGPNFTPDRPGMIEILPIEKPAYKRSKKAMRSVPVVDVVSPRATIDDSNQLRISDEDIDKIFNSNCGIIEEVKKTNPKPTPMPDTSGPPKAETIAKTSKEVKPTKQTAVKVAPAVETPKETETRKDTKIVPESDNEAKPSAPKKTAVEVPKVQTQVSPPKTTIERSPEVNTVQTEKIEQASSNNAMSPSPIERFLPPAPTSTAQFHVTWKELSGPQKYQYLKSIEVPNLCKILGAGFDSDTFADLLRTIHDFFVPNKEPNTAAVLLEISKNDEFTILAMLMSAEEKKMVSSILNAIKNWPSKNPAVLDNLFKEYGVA
Zipper (Q99323, form named): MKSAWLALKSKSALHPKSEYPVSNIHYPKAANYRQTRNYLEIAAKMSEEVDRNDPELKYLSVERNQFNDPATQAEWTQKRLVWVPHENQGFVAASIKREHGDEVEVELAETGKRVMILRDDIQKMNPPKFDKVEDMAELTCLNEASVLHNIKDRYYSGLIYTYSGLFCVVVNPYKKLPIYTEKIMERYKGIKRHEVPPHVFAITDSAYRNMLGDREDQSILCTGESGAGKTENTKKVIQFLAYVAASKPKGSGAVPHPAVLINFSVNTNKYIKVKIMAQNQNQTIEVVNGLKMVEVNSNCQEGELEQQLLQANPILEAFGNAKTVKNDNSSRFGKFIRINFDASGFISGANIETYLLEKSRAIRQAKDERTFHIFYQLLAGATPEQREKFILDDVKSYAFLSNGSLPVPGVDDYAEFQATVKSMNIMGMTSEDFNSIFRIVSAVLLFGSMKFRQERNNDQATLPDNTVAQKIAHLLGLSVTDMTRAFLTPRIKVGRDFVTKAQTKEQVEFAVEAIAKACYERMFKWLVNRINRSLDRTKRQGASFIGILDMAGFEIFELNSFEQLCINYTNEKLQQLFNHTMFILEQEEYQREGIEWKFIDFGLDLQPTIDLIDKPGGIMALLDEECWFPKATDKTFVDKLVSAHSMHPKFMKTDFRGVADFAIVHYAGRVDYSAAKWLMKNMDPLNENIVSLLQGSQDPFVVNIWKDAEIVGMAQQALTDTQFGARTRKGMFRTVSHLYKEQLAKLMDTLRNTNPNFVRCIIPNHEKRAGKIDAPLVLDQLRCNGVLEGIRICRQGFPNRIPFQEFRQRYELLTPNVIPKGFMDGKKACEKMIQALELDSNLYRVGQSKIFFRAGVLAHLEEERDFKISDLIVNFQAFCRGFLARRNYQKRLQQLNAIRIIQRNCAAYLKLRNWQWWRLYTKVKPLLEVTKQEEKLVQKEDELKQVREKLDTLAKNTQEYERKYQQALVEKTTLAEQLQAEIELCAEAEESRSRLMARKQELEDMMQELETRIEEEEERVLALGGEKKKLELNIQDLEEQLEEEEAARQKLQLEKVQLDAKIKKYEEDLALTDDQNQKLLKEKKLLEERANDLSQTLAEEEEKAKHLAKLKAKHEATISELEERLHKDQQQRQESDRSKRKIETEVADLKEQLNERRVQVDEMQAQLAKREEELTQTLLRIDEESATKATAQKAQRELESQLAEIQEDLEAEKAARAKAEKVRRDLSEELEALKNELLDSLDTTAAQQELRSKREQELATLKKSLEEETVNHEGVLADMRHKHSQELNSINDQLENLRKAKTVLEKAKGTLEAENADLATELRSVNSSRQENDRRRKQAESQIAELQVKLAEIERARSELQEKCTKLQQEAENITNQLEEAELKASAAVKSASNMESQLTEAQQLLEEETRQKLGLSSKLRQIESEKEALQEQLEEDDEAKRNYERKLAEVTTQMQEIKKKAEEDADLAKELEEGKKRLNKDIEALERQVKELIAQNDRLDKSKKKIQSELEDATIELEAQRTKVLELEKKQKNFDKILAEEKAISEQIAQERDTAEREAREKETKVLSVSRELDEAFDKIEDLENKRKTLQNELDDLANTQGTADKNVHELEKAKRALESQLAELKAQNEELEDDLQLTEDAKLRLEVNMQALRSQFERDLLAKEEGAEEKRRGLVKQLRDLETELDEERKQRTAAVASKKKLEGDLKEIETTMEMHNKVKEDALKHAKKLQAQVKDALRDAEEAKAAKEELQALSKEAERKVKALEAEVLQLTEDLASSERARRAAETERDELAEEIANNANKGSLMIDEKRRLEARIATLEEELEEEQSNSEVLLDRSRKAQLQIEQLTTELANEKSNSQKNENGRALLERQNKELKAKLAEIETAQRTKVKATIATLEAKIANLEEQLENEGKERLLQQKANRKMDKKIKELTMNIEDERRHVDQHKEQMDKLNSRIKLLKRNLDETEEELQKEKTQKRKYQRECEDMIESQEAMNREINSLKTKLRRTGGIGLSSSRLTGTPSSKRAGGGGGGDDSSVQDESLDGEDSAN
UniProt Q05547: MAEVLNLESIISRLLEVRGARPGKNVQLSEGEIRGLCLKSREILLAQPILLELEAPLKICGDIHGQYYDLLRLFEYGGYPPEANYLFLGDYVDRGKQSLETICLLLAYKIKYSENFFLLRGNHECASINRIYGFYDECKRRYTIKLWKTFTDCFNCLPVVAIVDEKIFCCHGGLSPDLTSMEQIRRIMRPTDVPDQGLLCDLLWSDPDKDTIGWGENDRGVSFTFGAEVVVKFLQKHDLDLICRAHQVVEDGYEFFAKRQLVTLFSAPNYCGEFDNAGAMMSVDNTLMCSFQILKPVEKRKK

These are yes or no findings as the source states them, for the method shown. Binding seen in cells or lysates may run through a third protein. A yes stands for co-enrichment or nearness to the bait. Other partners may have been found.

As for CG8407 (from UniProt A1Z8T9), the binding entry is on record as “binds”.
Take CG10859 (from UniProt Q9VJY4): the binding result is given as “binds”.
The value for CG15128 (from UniProt A1ZBP5) was “binds”; that for CG34107 (from UniProt Q0KI89) was “binds”.
Under Dhc62B (from UniProt Q7KVA7 1-3964) stands “binds”; under Spaghetti (from UniProt Q9V3E9), “binds”.
The value for Zipper (from UniProt Q99323 1-2056) was “binds”.
Regarding pp1-13C (from UniProt Q05547 1-302), the binding result was “binds”.

B1: CG9313 (protein, UniProt Q8MSJ9 1-739)
chain: MATKPGKGDGKQVKGKRTSKNKTDGPGGGGGDADDFDAWMKSRQLLKPDDQLDLTEAELGEEITKVLTPTNTNIVRNLVVYSFKEGEFVPAPLPGNTVTLIAFAGNSLHVDSDEGRRQIEESDEIGYPLPMPNYTVVEQRETDNVDGEEGEGEEDDDGATAKDAAVEDEDVEEEDDEEAKGTEGDEGEGEGEGEGAAARQEDDEPAHQAAAVSSKKRKLINQFNYCERGALTYTNPKRNVDTQTIPPPRSQFGANVLQWVIYDSYMENFAESQKDGTKKEERKRGKREKKFRDKSAIAEQLNKKYLKCWQILERMINQNIYDDIAHDYRYWEDPADEFREGEGNLLPLWKFQYDKTKKMNVTDILFNPSYYDLFAVCFGSHDFMKQTNEGYLCLFTVKNPSFPDYIIQTDCGVMCCDIHPTYPFLAVIGLYDGNVAVYNLREDCKEPLYVSRGVNCKHGECVWQIKWGLDMADGEVNFFSVSSDGRVFNWILMQNKLWVTTIITLYRENGLVDGPDGTKVTLKSGGSCMVFHPVDNKIFLVGTECGYIYKCSTAFSSKYLMTYYAHNMSVYRIDFNRFNSNIFVSCGADWMVKVWEDMRPDPLFIFDLGAAVGDVKWAPYSSTVFAAVTTEGKVHVFDLNVNKYKAICIQAVVPKRKNKLTRLSFNEKLAFIVVGDEKGVTTSLKLSPNLRMMVKPPKKQLYLDQNTLQIGKLEKLLSLVRELPEGSTAVPDAATTVRS
In the case of B1, the binding entry is on record as “binds”.

B2: CG7770 (protein, UniProt Q9VW56 1-125)
chain: MDKKSAALYKKMQAEIESYQNLQKSCLKMVKQRAVLESQLNENKCVLDELNLLGPDNKVYKLFGPVLVKQELEESRQNVGKRIEYISKELKSSTDALENMEKDMLKHRESVAKYQQQCQVAAAMQ
As to B2, the binding entry is given as “binds”.

B3: CG5458 (protein, UniProt Q9VK29 1-344)
chain: MAMTEMSEEDLSAPEEEEDLGPNIGLYIGGRNAAGQRQGRGWAILPNGDQYDGNYRKGRRHGIGVYVFKDGSRYYGQYRCGKRCGRGIFIYPDGSVYEGNWRKNLKHGKGRYKYVNGDNYSGDWFKGQRHGVGIYHFNSGKDGCCLSVRMKATWNSNMRTGPFELYIGNEDKCTILHGIWDNLYPSGPAVFSFNNRYLLLGYFLPASYNMKAISNEDEMEDAEERLEDEMGEAEPMEPTLWFAQEMAVYDFSLLPQEPVPLAISDSELSVCSLSTEPSMRSEEKISWYGEGEEAEGEEGGEMECFPCECDLTDVSEVETESEVCKIDANPCCIEILKQPECPDP
Consider B3, for which the binding entry is on record as “binds”.

B4: CG3121 (protein, UniProt Q9W1D3 1-708)
chain: MDRDSCQNFSLDSTSSSHFAPPPVCAPRRKKPEKPAAEEASPECSNVTSSSSSSTTTISIGAFDSQCNLHNARNPEAPNIGYELNVAKSILQKYSTLSGDNLFDHLSDIIKRVIDERPPNVIDFFEEFSRNVREQKFHLPERFPPSGVFDEVRSFRVAKKILQSMKLPYVVEGEDLMGEDLSVEDLRTNEDMRIVIDDSMRYFVTFNERVQQLQFYWTQCGFSISNDDIFQLASAMNRLQTHPSIMQCRFWGCINGLKASYYIVEASLTREEIASRLVMMEEEMRQKQIPFPMRKDREDKPPPAHIGPELTPGIYGWEEFPPEELEKMKPKAAPVPLVEEMELYDIPPEFIGKGCNRYSYFVVNSLFDDWIELPIVTPRQIVVSRQIKKFLTGDLEADVISYPCFPGKEKHYLRTLIGRITAGTYIAPVGYYRRMTKKEQRMFDGEEEEEGEEEEEEEEEEEFNEGEEEQIEDNDVMLLKNEKYEAEPLGSLATPVAWVHVRSNILNQQGRVVWYDEEKARKEREKALALYLKMQMLGEMEEEVEEEEDEEEGEEEGEEEGMIEGFNQPELGPSILSSCANDMNPEVPVSWLARMTSKYTNQKERMLVMQSNVWPGAYTFIFEKTCESIYLGWGHKYYARNIPFKHLPMVQEEFPHNPEDFVEANDPTVEEEEAYKAWLLRKQQKAEYVAEDIEDYDDDEFADQYDDD
Consider B4, for which the binding entry is reported as “binds”.

B5: CG15863 (protein, UniProt Q4QQ01 1-132)
chain: MSQTDLNKSIEIITKTEELADKILVNKQELTVMDKRRQETRQAMRLMEKSEDKKVWITIGSMLVKMEREKALELLKKDQQKIEQQINLIYSDQKVLVNKHRDLEFKSPFSGTHLKPLEKKEFDALKANLPLL
Regarding B5, the binding entry is “binds”.

B6: dtr (protein, UniProt Q8INT5 1-1483)
chain: MSNSNRKEITGLNRMTPKGLKELCKKDKLYQTPRLNDVLYLHYQGFQCIESLEEYTELKCLWLECNAISEIQGLEKLSKLKCLFLQNNLITKIENLDPCRELDTLNLSSNHIRKIQNIGTNVLPVLNTLTISSNYLKDSESLSDLIQCKTLSVLDLSNNRIDDILIVKIFEQMLNLKVLVLQGNPVVSRLPQYRKTLILACKELTYLDSRPVFPRDRACAEAWKRDGYEGERKENNRWNRAERRKTRESINCTIRMRNSHRPPDQQDPLLRSSDSEDDTCAETARKKVALENGCVDDLWEEVSGEQPISEDGTNSSSSLEDNDGTSSQDDLIAEKLSNRRTLEGRPTVLYETEVSNVKSANNDINIFEEGVGKASQIIIEDKPVTKIKLINEPSCMNDKSAMNCTSMGPVVKENDFDEDAEIKNVDDMVPCQNLIKSNEDINSEFGFSSKLKQDFDQTCTALRNDAECKEFDEELTIKESESKPFNEMYDIFAAEDDKLNETLDLNLNETTCPHHVHDNFFSEQNKMPSFYEEDIMINLLPKTKEKTLLEKDSIIENEKCAHDLDEMGRQMEEDLAELRQSTQNLIGISIDETARTDSETDEEDLIAQQDPYSPLLKQQFKDRRMKIMLTEETKAQEESLSDRNIALSNESDQDDKQDQLFAKILDDATENIPKRIFGTGCDALSSVWPQEECLLQLTLPENKESPAQEDTFKKSITNSTSFEKANEICVRMDQKMAEEEEALGKLLHDLEGEINNVYDINTKVKYEENTSTNESDAVSICTSLLDDIIVGLTFDEVLCHEKPKSFEFGLIESDEEFSYSFEPKLEKLVPPALEDPARGKSLRECLDTFSDFVSSMADPKLPVMLGRNPTSGVEKIRAAQELLKTKNLSDLYKDTAESLNSQVAKEIEKRKRRVAASATRCFNQRDKYDDTLELVENRLMIVKKDSGDLEELPPPPPLISDTESEDDNPTEDNYTPGNEVHRHGTKTQDSKEHLMSNLLNQNQDDIIEGKKNDSAEDEFYSLEAMTTFGNLDAEFFQKLDLQKVNASEDSEPAINCMRSYNELQAYMKSGSLNTQLNSEEAEMLQTMCSRVASDVDKPKSQNSKEEEEDDLLKKMVLRMKEYEEREHQLQLISHETSSELGPIKLSIGGSKLFEQNTKIPESVLVHSENEPTRNNKPINTKNTNDKESSDIMEKNGDPSVTTSFKTSHKSIDDDIQSDVSTDYESGEEVVVVEPPTLSEAVLKSFYSDEFEADSKMVHELEEATRRNLRRYNPNIMHISTSNHPFSTNNILPTKTSTSELSEGAKAKWAKIAERLHEFLDPETIANLNKEQFGESDECEDSQDDNITDITVEETNLKKDTKLVVLEEYNNTHTCDGNSCPSKLDDSDQFASLKGFEKIKETPTHNMGLSSVMSASQNKTSETLPNEIGNKITDFSSFKTSSTDLINSEGVKTEQIQCNLQILSDEGDVVVEELSVNAQVSSFK
Take B6: the binding entry is on record as “binds”.

B7: CG18472 (protein, UniProt Q9VBA1 1-469)
chain: MEKEKKKSLLERYNIPIHYLDFAHVEKCTNAREMEKIVQILRSGEEGHYPDLQRCAEEKLKALKPDSKLFRYEEQIKQSTDLDKTELKPILDWTDAIKTKDNALNELKKVKQNLNLPSVRKLSKIDLEKESKTEKPKPAPKATSPSNTKNKEARIKSTDYRKWDKYDPDEEILRMDLNEERDQEQREKIISNHSKSVTTDKLQSERDSLYERLQAQLKNLSQLEKEQFAERHRLRGNESFKAKEYENAIEEYNCSIIYDPENAVHAYNNRAVAHLKLKKYFSAISDCQACLQIDPMNIKAHLRMAEAHNAEGKHLESLNVYKKLLDFEPDNAIAKKAVEKLTSMLGEVAPSSATRLIIEEIDPPQLKTSEPKKEAEKSEPTVVKKPEPVVSAKKPPPIKDYDLAELVKPNRMVKSNLVSAAEALGNKMQASKGGAPKKPQSPPMTPKETLLRLPQDNLNNSNKLLIQEI
B7: the binding entry is reported as “binds”.

B8: Uri (protein, UniProt Q9W148 1-731)
chain: MDRREDALLQALQTNASETERWEAFKRDNESTIRNLDKFAKNLSVEVMVPIGRKALMPGELIHTNELLVGHYEGYFSACSSHKAKEICQYRLKLAEEQLKKLAVENDLWQKKLHTPFAEGAVPSGDQVEIVEDFNEESHNKWLAEHRKRMRQQKQKERLEREAEPVKKDNEVLRKLEEREMMEELGLDPDNIDEDQLHDMLNQEPLKSTNESSPKSLTQEEEDELWKKLEAEEQNEADELSSEAEESLKTTDNLVRQLMSGETETPSSKKRTAGTNRNVEIQDPISEDDGDDDDEGDQEEEVRTIREQMSLLPNEDREPFLRAQLHVLKAKMRKIQKVNFISDELIHLMNVVVMLEDDLQDLVFEQELEASEEEEEVVENNHLPDEPSKELSTVSESSTNKRRISFALDDEKLEFRREETVAEMLPNAKKNSRDIIKLNAPLKPAGDPQPASIKTKRQTTQDILQKVERNIEFVKENQSVQDFDLLNRIMEESTGLINTLHISFTHSGAIPSPSSDQSDGIPGKPSDFYVRYEKDRARPNDSFPIYVNGFEGEEHVKVPIMSEAARGSAYEDPRSQFSKPNSSEICFTHSGSITPTSNDQSDDIPGNPFDFYEKYEKDRAKFSKSNSSEGDATDPESATKSILRNKSAVDLEPHNVNQQPKKGRKVRNQKKKERTLDDDLRDMSAYQKVMHDLVEKEPTAPEPLPPGKFIDSHAPKKRVSRFKEQRALNKT
Regarding B8, the binding entry is given as “binds”.

B9: CG31802 (protein, UniProt Q8T415 1-186)
chain: MSGKRLGSMVSSASVMHSSASISSRAKKSKKPKLPTFDLSLSQKVDIKKAFDLFDTQCTGFIETKELRVAIRALGFEPKKEDIKRMMDEIDKDKTGRIAFNDFLYLMRLKMAEKDSNQDMMKAFSFFDDDRTGGISFLNLKRVAKELGEQLTDEELQEMIDEANVSGDGEVSKEEFLNLIKKTNLI
On to B9, for which the binding entry was “binds”.

These data come from paper PMC6028525.
